This experiment concerns the target EGFP-TEV-sNASP (human) (UniProt P49321). The experiment can be described thus: co-IP + co-sedimentation; GFP-Trap pull-down of eGFP-sNASP from transiently transfected HEK293-F cells, TEV release, 4–20% glycerol gradient (240,000 × g, 14 hr, 4°C); SDS-PAGE, silver stain and Western blot of fractions.

Amino acid sequences for entries named in this document (tags omitted).
UniProt Q9NVP2: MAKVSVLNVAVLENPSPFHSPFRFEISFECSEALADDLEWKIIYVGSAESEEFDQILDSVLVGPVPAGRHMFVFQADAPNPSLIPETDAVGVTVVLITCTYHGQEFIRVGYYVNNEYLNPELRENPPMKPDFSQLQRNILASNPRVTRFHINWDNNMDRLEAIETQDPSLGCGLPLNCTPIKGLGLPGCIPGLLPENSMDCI
UniProt O14929: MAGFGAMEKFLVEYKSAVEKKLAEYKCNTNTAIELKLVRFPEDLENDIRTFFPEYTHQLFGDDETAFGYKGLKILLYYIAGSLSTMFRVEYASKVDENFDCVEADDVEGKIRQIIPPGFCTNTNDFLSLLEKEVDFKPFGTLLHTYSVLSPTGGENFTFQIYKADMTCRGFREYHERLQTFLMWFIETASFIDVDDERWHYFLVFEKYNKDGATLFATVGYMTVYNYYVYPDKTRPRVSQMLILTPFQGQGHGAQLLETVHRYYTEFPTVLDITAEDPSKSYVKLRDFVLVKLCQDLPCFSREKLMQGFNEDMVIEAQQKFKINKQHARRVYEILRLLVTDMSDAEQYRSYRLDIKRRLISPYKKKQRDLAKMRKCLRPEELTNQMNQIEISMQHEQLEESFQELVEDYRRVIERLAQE

Results are given in words; binding and its absence hold for the method and conditions named. In cells and extracts the contact can be indirect. Some entries that bind do so weakly or less than the wild type.

As to ASF1B (from UniProt Q9NVP2 1-202), the binding result is “binds”.

Regarding HAT1 (from UniProt O14929 1-419), the binding result is “binds”.

The values above are taken from PMC9560165.
